This assay concerns the target T1, TFF2-Fc (Trefoil factor 2 fused to Fc) (UniProt Q03404).
T1 sequence: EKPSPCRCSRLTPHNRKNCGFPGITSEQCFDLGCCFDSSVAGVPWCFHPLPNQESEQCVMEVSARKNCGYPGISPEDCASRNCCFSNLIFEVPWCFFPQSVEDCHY
Put plainly: co-IP.

From publication doi:10.1101/469684 come the findings set out here.

No constants are given. Whether binding was seen depends on the method and setting. In cells and extracts the contact can be indirect. Some binding calls cover weakened binding; strength is not graded here. Where a sequence is shown, tags or fusion partners need not be part of it.

B1: Flag-tagged murine LINGO3 (leucine rich repeat and immunoglobulin like domain containing nogo receptor interacting protein 3) (receptor, UniProt Q6GQU6 24-589)
chain: CPARCECSASTRTVACGRRRLTAIPEGIPAETRMLELSRNRIRCLNPGDLASLPTLEELDLNHNVIAHVEPGAFANLPRLRVLRLRGNQLKLIPPGVFTHLDSLTLLDLSENKLVILLDFSFQDLRSLQRLEVGDNDLVFISRRAFAGLLGLAELTLERCNLTSLSPESLGHLRGLGALRLRHLAIAALEDQNFQKLPGLSHLEIDNWPLLEEVAPGSLRGLNLTSLSITHTNITAVPAAALRQQAHLTCLNLSHNPISMVPRGSFRDLVRLRELHLAGALLAVIEPQAFVGLRQIRLLNLSDNLLSTLEENTFHSVNTLETLRVDGNPLACDCRLLWIVQRRKTLNFDGRLPACATPAEVRGDALHNLPDSVLFEYFVCRKPKIRERRLQHVTATEGDDVRFLCRAEGEPAPTVAWVTPQHHSVTAASRGRARVLPGGTLTIADTRPQDSGTYTCVASNAGGNDTYFATLTVQPAANRTQGDGHNETQVGVRFPLDLTTILVSTAMGCITFLGVVLFCFLLLFVWSRGRGQHKNNFSVEYSFRKVDGPAAAAGQGGARKFNMKMI
In the case of B1, the binding entry is given as “binds”.
